{
  "source": "patent US20100216876A1",
  "about": "“ANTIDIARRHETIC COMPOSITION, PRODUCT CONTAINING THE SAME AND METHOD OF PREVENTING DIAHHREA” (priority 2007, published 2010)",
  "test_system": "intestinal Cl− secretion",
  "test": "Short-circuit current (Isc) measurement of cecum mucosa sample in Ussing chamber after forskolin",
  "type": "cell-based, mouse",
  "conditions": "forskolin administered on the serosa side (stock 5 mM, 1,000 times final concentration)",
  "protocol": "A sample of large-intestinal mucosa was prepared in the following manner. A mouse was killed by cervical vertebra dislocation. After abdominal incision, the cecum was excised by cutting the boundary parts of the cecum with the small intestine and the large intestine. The cecum was cut open with scissors into a sheet. In order to completely remove the contents of the cecum, the cecum was pinched with tweezers and washed with a buffered solution. Then, a substitution fluid was placed in a petri dish covered with rubber, and the cecum was attached thereon with the serosa side up. Under conditions in which the buffered solution-in the petri dish was always aerated with 95% O2/5% CO2, the muscle layer was peeled using tweezers, and a sample composed of mucosa and submucosa was produced. The sample was divided into four pieces for the experiment.\nElectrical analysis was carried out using this sample. FIG. 1 is a diagram showing an embodiment of measurement of short-circuit current (Isc) in Ussing chamber. The mucosa sample was placed between two Ussing-type chambers (window area: 0.2 cm^2) containing 5 ml of buffered solution. For the measurement of the electrical potential difference, a pair of calomel electrodes was connected to each chamber through a 1MKCl/2% agar salt bridge. […] These electrodes were connected to a voltage clamp apparatus, and the short-circuit current (Isc) was measured. […]",
  "note": "At least one structure is not confirmed: it was looked up by name or label, or the drawing left a doubt.",
  "data": [
    {"compound": "C=C[C@@]1(C)CC(=O)[C@]2(O)[C@@]3(C)[C@@H](O)CCC(C)(C)[C@@H]3[C@H](O)[C@H](OC(C)=O)[C@@]2(C)O1", "note": "[forskolin, reference compound]", "values": [
      {"measurement": "effect on Isc", "result": "Isc significantly increased"}
    ]}
  ]
}
